{
  "source": "paper PMC3438292",
  "about": "(Journal of medicinal chemistry, 2010)",
  "origin": "cited, not measured here",
  "tested_on": "5-HT2B receptor",
  "settings": "cited from earlier work",
  "data": [
    {"smiles": "CCN(CC)C(=O)N[C@H]1C=C2c3cccc4[nH]cc(c34)C[C@H]2N(C)C1", "note": "[lisuride]", "values": [
      {"measurement": "activation of 5-HT2B receptors", "value": "do not activate"}
    ]}
  ]
}
